PubChem BioAssay AID1508588, Peter MacCallum Cancer Centre, 2020
This is a random part of about 18,000 reagents tested. 790 of all reagents (4.4%) were called active. 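Calls rest on a combination of fold-change classes in drug and vehicle arms, not all shown here.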 Entries without a mark were called inactive. No sequences are given here.

- Screen: 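Knock-downs boosting vemurafenib effects on melanoma cell growth or lactate release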 (primary screen)
- Cells: human WM266.4 melanoma cells (BRAF V600 mutant)
- Knock-down reagent: siRNA pool against human genes, 40 nM
- Duration: 96 h from transfection to read-out
- Challenge: vemurafenib 300 nM (about IC25), added 48 h after transfection, for 48 h; comparison arm got DMSO vehicle only
- Detection: 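Ratios to non-targeting siRNA for cell gain, counted as DAPI nuclei after minus before drug and averaged over two replicates, and for absorbance-read medium lactate per cell; both binned into fold-change classes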
- Scale: cell gain with vemurafenib: higher = more cell gain than with non-targeting siRNA; lactate per cell with vemurafenib: higher = more lactate made per cell
- Active means: 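a knock-down counts as enhancing when its fold-change classes with vehicle and with vemurafenib, taken together, show a stronger drug effect on cell gain or lactate per cell; exact class pairs not stated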
- Meaning of the calls: active = enhances vemurafenib effect; inactive = no enhancement seen

gene knocked down	cell gain with vemurafenib	lactate per cell with vemurafenib
IGSF8 (GeneID 93185)	0.84	1.01
CLTCL1 (GeneID 8218)	0.5	1.07
FGB (GeneID 2244)	0.61 (active)	0.17
GPX7 (GeneID 2882)	0.37	1.42
CSF2RA (GeneID 1438)	0.69	0.64
CALU (GeneID 813)	0.8	0.76
RPL27A (GeneID 6157)	-0.02	1.65
CDY2A (GeneID 9426)	0.33	1.54
MVK (GeneID 4598)	0.9	0.67
TAF4 (GeneID 6874)	0.2	1.73
PRICKLE4 (GeneID 29964)	1.12	0.68
OSBPL6 (GeneID 114880)	1	0.44
IQCB1 (GeneID 9657)	0.37 (active)	0.46
DDX18 (GeneID 8886)	0.4	1.24
F2 (GeneID 2147)	0.51	0.9
LRCH3 (GeneID 84859)	0.16 (active)	0.08
SACK1H (GeneID 286077)	0.52	1.8
ZNF528 (GeneID 84436)	0.16	1.66
CAMK2N2 (GeneID 94032)	0.4	0.54
DOCK4 (GeneID 9732)	0.3	2.21
GADD45GIP1 (GeneID 90480)	0.83	0.8
NCF4 (GeneID 4689)	0.48	1.04
QRICH2 (GeneID 84074)	0.47	1.23
SLC25A10 (GeneID 1468)	0.68	0.83
ABCC9 (GeneID 10060)	0.61	0.62
FNBP1L (GeneID 54874)	0.31	1.04
FAABTP (GeneID 55266)	0.55	0.5
NEK2 (GeneID 4751)	0.45	1.63
FABP6 (GeneID 2172)	0.45	1.7
VDAC2 (GeneID 7417)	0.44	1.62
NAV2 (GeneID 89797)	0.98	0.7
DAPP1 (GeneID 27071)	0.81	1.46
MAP3K10 (GeneID 4294)	0.85	0.44
COX18 (GeneID 285521)	0.9	1.13
GHRH (GeneID 2691)	0.41	1.4
TYMSOS (GeneID 494514)	0.42 (active)	0.52
INO80D (GeneID 54891)	0.78	0.42
WDHD1 (GeneID 11169)	0.12	0.83
C8A (GeneID 731)	0.43	0.7
CLCN4 (GeneID 1183)	0.41	1.35
MYCT1 (GeneID 80177)	0.28	1.3
KCNAB1 (GeneID 7881)	0.44	1.37
ENOPH1 (GeneID 58478)	0.6	0.82
TNNT3 (GeneID 7140)	0.45	1.33
PPFIBP1 (GeneID 8496)	0.47	1
COQ3 (GeneID 51805)	0.25	1.21
PNLIPRP3 (GeneID 119548)	1.15	0.44
PDCD4 (GeneID 27250)	0.64	0.42
LTN1 (GeneID 26046)	1.03	0.86
GALC (GeneID 2581)	0.68	0.71
PMEPA1 (GeneID 56937)	0.33	0.7
FAM167B (GeneID 84734)	0.57	0.42
H4C15 (GeneID 554313)	0.99	0.75
CAPN9 (GeneID 10753)	1.02	0.6
RRAS2 (GeneID 22800)	0.65	0.28
HIP1 (GeneID 3092)	0.6	1.25
ADGRE2 (GeneID 30817)	0.75	0.75

9 consecutive entries already listed, quoted:
gene knocked down	cell gain with vemurafenib	lactate per cell with vemurafenib
CLCN4 (GeneID 1183)	0.41	1.35
MYCT1 (GeneID 80177)	0.28	1.3
KCNAB1 (GeneID 7881)	0.44	1.37
ENOPH1 (GeneID 58478)	0.6	0.82
TNNT3 (GeneID 7140)	0.45	1.33
PPFIBP1 (GeneID 8496)	0.47	1
COQ3 (GeneID 51805)	0.25	1.21
PNLIPRP3 (GeneID 119548)	1.15	0.44
PDCD4 (GeneID 27250)	0.64	0.42
